Drawing on publication PMC4004979, this text covers binding for one substance.

Protein sequences, listed by entry. Tags and fused reporters are not part of them.
UniProt Q9JM13: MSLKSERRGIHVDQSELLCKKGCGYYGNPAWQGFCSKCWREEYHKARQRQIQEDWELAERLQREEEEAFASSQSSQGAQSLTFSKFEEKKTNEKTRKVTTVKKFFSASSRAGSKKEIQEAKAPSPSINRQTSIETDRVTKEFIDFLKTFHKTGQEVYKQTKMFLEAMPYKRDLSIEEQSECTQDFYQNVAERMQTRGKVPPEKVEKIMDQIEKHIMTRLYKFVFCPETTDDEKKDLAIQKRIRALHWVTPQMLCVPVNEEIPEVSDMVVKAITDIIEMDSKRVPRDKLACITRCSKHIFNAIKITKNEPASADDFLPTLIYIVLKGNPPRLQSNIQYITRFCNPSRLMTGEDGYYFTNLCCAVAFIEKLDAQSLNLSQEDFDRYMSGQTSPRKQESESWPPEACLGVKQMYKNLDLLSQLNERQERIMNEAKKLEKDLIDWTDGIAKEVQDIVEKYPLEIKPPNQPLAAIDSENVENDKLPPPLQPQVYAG

Results are given in words; binding and its absence hold for the method and conditions named. Binding seen in cells or lysates may run through a third protein. Some entries that bind do so weakly or less than the wild type. Where a sequence is shown, tags or fusion partners need not be part of it.

The target of one test is T1, EGFP–Rab20 (mouse) (UniProt P35295).
T1 sequence: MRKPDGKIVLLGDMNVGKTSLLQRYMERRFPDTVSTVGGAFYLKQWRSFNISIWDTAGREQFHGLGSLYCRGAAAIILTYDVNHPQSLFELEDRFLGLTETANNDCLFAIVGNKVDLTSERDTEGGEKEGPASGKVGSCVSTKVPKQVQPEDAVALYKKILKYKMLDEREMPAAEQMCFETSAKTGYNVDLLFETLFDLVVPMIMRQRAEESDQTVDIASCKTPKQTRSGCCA
In words: co-IP; GFP-Trap beads with lysate of RAW264.7 macrophages stably expressing EGFP-Rab20; lysis buffer (20 mM Tris-HCl pH 7.5, 150 mM NaCl, 0.5% NP-40) with 1 mM GTPγS; 2 h at 4°C; blotted for GFP and Rabex-5.

The target of the next test is T2, GST–Rab20 (mouse) (UniProt P35295).
T2 sequence: T1 sequence
In words: pull-down; GST-Rab20 immobilised on glutathione-agarose beads and preloaded with 2 mM GTPγS; incubated with RAW264.7 lysate (2 mM GTPγS) for 2 h at 4°C; Rabex-5 detected by western blotting; only the target purified.

As for Rabex-5 (from UniProt Q9JM13 1-491), the binding result with EGFP–Rab20 (mouse) and in the test with GST–Rab20 (mouse) was “binds” each time.
